From PMC12439152
These are yes or no findings as the source states them, for the method shown. Binding seen in cells or lysates may run through a third protein. Some results given as binding are weak or reduced against the parent protein; the word gives no strength.

Chains of the proteins cited; added tags and fusions are not shown.
UniProt Q9Y572: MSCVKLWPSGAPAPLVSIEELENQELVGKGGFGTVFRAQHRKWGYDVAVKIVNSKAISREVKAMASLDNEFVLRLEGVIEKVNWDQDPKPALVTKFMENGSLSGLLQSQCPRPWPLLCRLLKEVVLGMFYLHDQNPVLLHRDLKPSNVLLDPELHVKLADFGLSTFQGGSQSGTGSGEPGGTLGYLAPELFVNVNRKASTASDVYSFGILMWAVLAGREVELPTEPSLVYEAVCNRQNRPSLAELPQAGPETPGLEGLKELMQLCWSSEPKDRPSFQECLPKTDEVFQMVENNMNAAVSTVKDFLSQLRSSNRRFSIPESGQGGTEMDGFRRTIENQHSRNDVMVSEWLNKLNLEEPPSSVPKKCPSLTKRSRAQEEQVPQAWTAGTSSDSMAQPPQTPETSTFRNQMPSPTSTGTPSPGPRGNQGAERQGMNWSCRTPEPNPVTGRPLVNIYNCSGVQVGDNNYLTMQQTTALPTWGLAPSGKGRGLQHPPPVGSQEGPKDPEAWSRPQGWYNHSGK

Molecular target: T1, acid-sensitive ion channel ASIC1a (human (endogenous in RA-FLSs)) (UniProt P78348)
T1 sequence: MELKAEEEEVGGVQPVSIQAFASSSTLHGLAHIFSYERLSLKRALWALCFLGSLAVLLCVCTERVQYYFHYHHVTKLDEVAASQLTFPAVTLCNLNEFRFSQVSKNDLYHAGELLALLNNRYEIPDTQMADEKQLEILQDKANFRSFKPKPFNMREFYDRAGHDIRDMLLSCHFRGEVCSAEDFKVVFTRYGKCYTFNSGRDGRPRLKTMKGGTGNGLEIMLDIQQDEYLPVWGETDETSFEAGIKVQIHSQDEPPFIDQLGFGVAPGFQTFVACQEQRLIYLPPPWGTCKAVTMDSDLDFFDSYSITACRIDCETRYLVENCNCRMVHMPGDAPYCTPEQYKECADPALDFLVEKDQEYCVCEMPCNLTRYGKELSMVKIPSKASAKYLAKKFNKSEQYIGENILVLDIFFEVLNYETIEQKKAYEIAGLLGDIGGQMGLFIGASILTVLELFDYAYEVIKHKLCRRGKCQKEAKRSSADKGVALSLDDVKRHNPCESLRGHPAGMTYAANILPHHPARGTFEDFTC
Assay: co-IP; RA-FLSs (pH 7.4 or pH 6.8 medium) lysed in weak lysis buffer; lysate incubated with anti-ASIC1a antibody or IgG, protein A/G, 4 C overnight, six washes; Western blot

- binding: binds
Substance: RIPK3 (from UniProt Q9Y572 1-518)
